From paper PMC9283456

Key:
[1] = molecular target: T1, Transmembrane-4 L-six family member-1 (TM4SF1), endogenous (human (endogenous in Eca109 and ESCC patient tissue)) (UniProt P30408); assay: co-IP; endogenous TM4SF1 immunoprecipitated with anti-TM4SF1 antibody and protein-A/G PLUS beads from Eca109 cells cultured with or without laminin-coating; 0.1% Triton TBS (20 mM Tris-HCl pH 7.4, 150 mM NaCl), 4 °C; blots for integrin α6, β4, β1
T1 sequence: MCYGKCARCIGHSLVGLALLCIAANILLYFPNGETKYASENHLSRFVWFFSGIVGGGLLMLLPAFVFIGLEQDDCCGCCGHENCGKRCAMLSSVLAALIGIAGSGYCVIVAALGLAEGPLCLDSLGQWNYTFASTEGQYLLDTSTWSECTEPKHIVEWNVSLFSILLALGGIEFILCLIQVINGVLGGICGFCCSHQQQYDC

[2] = molecular target: T1, Transmembrane-4 L-six family member-1 (TM4SF1), endogenous (human (endogenous in Eca109 and ESCC patient tissue)); assay: co-IP; endogenous TM4SF1 immunoprecipitated with anti-TM4SF1 antibody and protein-A/G PLUS beads from homogenized ESCC patient tissue lysate; 0.1% Triton TBS (20 mM Tris-HCl pH 7.4, 150 mM NaCl), 4 °C; blots for integrin α6, β4, β1

binding [1]: binds
binding [2]: binds
Substance: integrin α6 (receptor)

No constants are given. Whether binding was seen depends on the method and setting. Binding seen in cells or lysates may run through a third protein. A result given as binding can be weak or reduced; the word gives no strength.
